Data from patent publication US6844466B2, “Alkyl urea retinoid agonists” (Syntex (U.S.A.) LLC, priority 2001, dated 2005).
Some results were stated once for a whole list of compounds, not compound by compound.

Experiment: Effect of RAR agonists on plasma triglyceride levels
Format: in vivo, male, Wistar Han rats
Conditions: rat, oral, two weeks (10 doses); all dose levels (0.3, 1 and 3 mg/kg); FIG. 2
Excerpt: Sixty male, Wistar Han rats (Charles Rivers Laboratories) were used in this experiment. The received weight of the rats varied between 200-250 gm. The compounds used in this study were formulated in Miglyol 812, Batch 000719, Product #6330 (Condea) with 0.01% BHA and 0.01% BHT. Three RAR agonists, illustrated below, were compared with regards to their effects on triglyceride levels. Compounds 39 and 40 are prior art compounds (see, Hashimoto, Yuichi; Kagechika, Hiroyuki; Kawachi, Emiko; Fukasawa, Hiroshi; Saito, Go; Shudo, Koichi. “Evaluation of differentiation-inducing activity of retinoids on human leukemia cell lines HL-60 and NB4” Biol. Pharm. Bull. (1996), 19(10), 1322-1328; and Takagi, Kanji; Suganuma, Masami; Kagechika, Hiroyuki; Shudo, Koichi; Ninomiya, Mitsuo; Muto, Yasutoshi; Fujiki, Hirota. “Inhibition of ornithine decarboxylase induction by retinobenzoic acids in relation to their binding affinities to cellular retinoid-binding proteins” J. Cancer Res. Clin. Oncol. (1988), 114(3), 221-4, while compound 27 is a compound prepared in Example 7, herein. […]
Quantitation of triglycerides contained in rat plasma may be performed using established procedures. […] Hydrogen peroxide may be quantitated […] in a Hitachi 911 Chemistry Analyzer. […]

CC1(C)CCC(C)(C)c2cc(NC(=O)Nc3ccc(C(=O)O)cc3)ccc21 [Compound 39, reference compound]
triglyceride levels expressed as a percentage relative to vehicle control (100%): > 100%

CN(C(=O)Nc1ccc(C(=O)O)cc1)c1ccc2c(c1)C(C)(C)CCC2(C)C [Compound 40]
triglyceride levels expressed as a percentage relative to vehicle control (100%): > 100%
